# Data taken from patent US20200040071A1 (HUB BIOTECH, published 2020).
# These are yes or no findings as the source states them, for the method shown. Some entries that bind do so weakly or less than the wild type.
# T1: endothelial monocyte activating polypeptide II (EMAP II) (UniProt Q12904)
# T1 sequence (looked up): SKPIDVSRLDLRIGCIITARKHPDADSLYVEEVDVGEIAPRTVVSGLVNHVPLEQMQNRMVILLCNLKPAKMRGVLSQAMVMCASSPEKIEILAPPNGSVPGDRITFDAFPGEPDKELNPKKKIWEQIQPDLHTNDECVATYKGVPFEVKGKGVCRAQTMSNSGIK
# What was measured:
# [1] = target: T1, endothelial monocyte activating polypeptide II (EMAP II); assay: ELISA, EMAP II coated at 1 ug/ml, anti-IgG-HRP detection, absorbance at 450 nm
# [2] = target: T1, endothelial monocyte activating polypeptide II (EMAP II); assay: SPR (Reichert SR7500DC), EMAP II protein fixed to a PEG chip (ligand printed on the sheet as hAIMP1), antibody as analyte at 0-40 nM
# [3] = target: T1, endothelial monocyte activating polypeptide II (EMAP II); assay: ELISA, plate coated with EMAP II antigen (1 µg/ml), detection with anti-IgG-HRP, OD 450 nm
binding [1],binding [2],binding [3],Binder
binds,binds,binds,"BAP015-hum03 antibody (antibody, V domains shown, The printed variable regions end at FGQG (light) and WGQG (heavy), so they seem to stop short of the end of framework 4; also called anti-EMAP II parent antibody; control group) VH: EVQLVQSGAEVKKPGATVKISCKVSGYTFTSYTMHWVRQAPGQGLEWMGYINPSSGFTNYNQKFKDRVTISADKSISTAYLQWSSLKASDTAMYYCASRFAYWGQG VL: AIQLTQSPSSLSASVGDRVTITCKASQDVSTAVAWYQQKPGKAPKLLIYSASYRYTGVPSRFSGSGSGTDFTFTISRLEPEDFAVYYCQQHYSIPYTFGQG"
–,–,binds,"BAP072-EMAP II-4 antibody (antibody, V domains shown) VH: EVQLVQSGAEVKKPGATVKISCKVSGYTFTSYTMHWVRQAPGQGLEWMGYTNPSSGFTNYTQKFKDRVHISADKSISTAYLQWSSLKASDTAWYYCASRFAYWGQG VL: AIQLTQSPSSLSASVGDRVTITCKASQDVSTAVAWYQQKPGKAPKLLIYSASYGYTGVPSRFSGSGSGTDFTFTISRLEPEDFAVYYCQQHYSIPYTFGQG"
–,–,binds,"BAP072-EMAP II-3 antibody (antibody, V domains shown, also called BAP072-EMAP 11-3) VH: EVQLVQSGAEVKKPGATVKISCKVSGYTFTSYTMHWVRQAPGQGLEWMGYINPRSGFTNYRQKFKHRVTISADKSISTAYLQWSSLKASDTAMYYCFSRFAYWGQG VL: AIQLTQSPSSLSASVGDRVTITCKASQDVSTAVAWYQQKPGKAPKLLIYSASYGYTGVPSRFSGSGSGTDFTFTISRLEPEDFAVYYCQQHYSIPYTFGQG"
–,binds,binds,"BAP072-EMAP II-1 antibody (antibody, V domains shown) VH: EVQLVQSGAEVKKPGATVKISCKVSGYTFTSYTMHWVRQAPGQGLEWMGYINPRSGFTNYRQKFKHRVTISADKSISTAYLQWSSLKASDTAMYYCFSRFAYWGQG VL: AIQLTQSPSSLSASVGDRVTITCKASQDVSTAVAWYQQKPGKAPKLLIYSASYRYWGVPSRFSGSGSGTDFTFTISRLEPEDFAVYYCQQHYSIPYTFGQG"
